This note sets out measurements from doi:10.1101/867192.

No constants are given. Whether binding was seen depends on the method and setting. For part of these data: Binding seen in cells or lysates may run through a third protein. Some results given as binding are weak or reduced against the parent protein; the word gives no strength.

Assay [1] addresses T1, Rsph3b (mouse) (UniProt Q9DA80).
T1 sequence: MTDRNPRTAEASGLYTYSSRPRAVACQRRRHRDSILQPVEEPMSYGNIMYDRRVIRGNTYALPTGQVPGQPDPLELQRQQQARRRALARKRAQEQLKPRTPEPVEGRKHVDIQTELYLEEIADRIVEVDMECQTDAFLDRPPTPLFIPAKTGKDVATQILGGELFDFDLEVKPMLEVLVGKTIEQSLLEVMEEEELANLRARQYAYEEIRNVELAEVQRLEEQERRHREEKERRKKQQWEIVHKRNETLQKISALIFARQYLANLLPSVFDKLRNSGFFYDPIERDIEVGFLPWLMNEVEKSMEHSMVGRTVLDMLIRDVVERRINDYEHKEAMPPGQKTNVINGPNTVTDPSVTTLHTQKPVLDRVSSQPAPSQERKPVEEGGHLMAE
Kind of assay: co-IP.

The target in assay [2] is T1, Rsph3b (mouse). In words: co-IP + other: glycerol gradient sedimentation.
Assay [3] deals with T2, Rsph4a (mouse) (UniProt Q8BYM7).
T2 sequence: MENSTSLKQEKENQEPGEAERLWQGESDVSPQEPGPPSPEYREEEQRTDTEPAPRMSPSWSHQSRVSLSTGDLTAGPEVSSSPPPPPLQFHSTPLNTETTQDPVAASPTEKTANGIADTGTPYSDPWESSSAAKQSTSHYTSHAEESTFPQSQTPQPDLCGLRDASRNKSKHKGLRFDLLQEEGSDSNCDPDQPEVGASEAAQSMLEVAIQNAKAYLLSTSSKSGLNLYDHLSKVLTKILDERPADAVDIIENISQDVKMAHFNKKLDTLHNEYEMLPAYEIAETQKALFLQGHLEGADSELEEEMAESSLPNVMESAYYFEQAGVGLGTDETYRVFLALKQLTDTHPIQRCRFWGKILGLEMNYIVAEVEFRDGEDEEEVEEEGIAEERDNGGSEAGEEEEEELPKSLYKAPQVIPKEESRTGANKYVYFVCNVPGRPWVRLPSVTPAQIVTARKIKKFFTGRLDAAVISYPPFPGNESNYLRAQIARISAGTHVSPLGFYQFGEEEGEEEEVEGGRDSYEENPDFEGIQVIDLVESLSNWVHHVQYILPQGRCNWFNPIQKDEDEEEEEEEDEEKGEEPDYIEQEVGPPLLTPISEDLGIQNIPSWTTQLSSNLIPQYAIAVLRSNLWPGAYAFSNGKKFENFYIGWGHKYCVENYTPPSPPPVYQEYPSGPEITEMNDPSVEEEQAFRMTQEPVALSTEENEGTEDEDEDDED
Kind of assay: cross-linking.

For assay [4], the target named is T2, Rsph4a (mouse). Kind of assay: co-IP.
The target in a further assay is T3, Rsph6a (mouse) (UniProt Q8CDR2).
T3 sequence: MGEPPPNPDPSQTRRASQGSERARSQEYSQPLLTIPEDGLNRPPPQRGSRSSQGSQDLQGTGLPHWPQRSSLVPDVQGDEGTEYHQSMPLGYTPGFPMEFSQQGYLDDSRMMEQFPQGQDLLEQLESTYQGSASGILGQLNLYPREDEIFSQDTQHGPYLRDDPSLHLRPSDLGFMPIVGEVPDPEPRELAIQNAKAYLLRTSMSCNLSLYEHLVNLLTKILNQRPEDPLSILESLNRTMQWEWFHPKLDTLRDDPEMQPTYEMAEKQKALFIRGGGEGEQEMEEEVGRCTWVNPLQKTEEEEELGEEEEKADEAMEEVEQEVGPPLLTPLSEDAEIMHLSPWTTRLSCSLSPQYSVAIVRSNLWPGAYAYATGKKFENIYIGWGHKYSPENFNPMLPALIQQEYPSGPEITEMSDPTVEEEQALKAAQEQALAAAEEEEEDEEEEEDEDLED
Kind of assay: co-IP.

Assay [5] deals with T2, Rsph4a (mouse). In words: cryo-EM structure.
Assay [6] addresses T1, Rsph3b (mouse). Kind of assay: cross-linking.
The target of assay [7] is T1, Rsph3b (mouse). In words: cryo-EM structure.

B1: Rsph6a (protein, UniProt Q8CDR2-2 1-453)
chain: MGEPPPNPDPSQTRRASQGSERARSQEYSQPLLTIPEDGLNRPPPQRGSRSSQGSQDLQGTGLPHWPQRSSLVPDVQGDEGTEYHQSMPLGYTPGFPMEFSQQGYLDDSRMMEQFPQGQDLLEQLESTYQGSASGILGQLNLYPREDEIFSQDTQHGPYLRDDPSLHLRPSDLGFMPIVGEVPDPEPRELAIQNAKAYLLRTSMSCNLSLYEHLVNLLTKILNQRPEDPLSILESLNRTMQWEWFHPKLDTLRDDPEMQPTYEMAEKQKALFIRGGGEGEQEMEEEVGRCTWVNPLQKTEEEEELGEEEEKADEAMEEVEQEVGPPLLTPLSEDAEIMHLSPWTTRLSCSLSPQYSVAIVRSNLWPGAYAYATGKKFENIYIGWGHKYSPENFNPMLPALIQQEYPSGPEITEMSDPTVEEEQALKAAQEQALAAAEEEEEDEEEEEDEDLED
Take B1: the binding result with Rsph3b (mouse) [1] is “binds”; in the assay with Rsph3b (mouse) [2], “binds weakly”.

B2: Rsph1 (protein, UniProt Q8VIG3 1-301)
chain: MSDLGSEELEEEGENDLGEYEGERNEVGERHGHGKARLPNGDTYEGSYEFGKRHGQGTYKFKNGARYTGDYVKNKKHGQGTFIYPDGSRYEGEWADDQRHGQGVYYYVNNDTYTGEWFNHQRHGQGTYLYAETGSKYVGTWVHGQQEGAAELIHLNHRYQGKFMNKNPVGPGKYVFDIGCEQHGEYRLTDTERGEEEEEEETLVNIVPKWKALNITELALWTPTLSEEQPPPEGQGQEEPQGLTGVGDPSEDIQAEGFEGELEPRGADEDVDTFRQESQENSYDIDQGNLNFDEEPSDLQD
Regarding B2, the binding entry with Rsph4a (mouse) [3], with Rsph4a (mouse) [4], with Rsph6a (mouse), with Rsph4a (mouse) [5] and with Rsph3b (mouse) [2] was “binds” each time.

B3: Rsph9 (protein, UniProt Q9D9V4 1-276)
chain: MDADSLLLSLELASGSGQGLSPDRRASLLTSLMLVKRDYRFARVLFWGRILGLVADYYIAQGLSEDQLAPRKTLYSLNCTEWSLLPPATEEMAMQISVVSGRFMGDPSHEYEHTELQKVNEGEKVFDEEVVVQIKEETRLVSIIDQIDKAVAIIPRGALFKTPFGVTHVNRTFEGLPLSEVRKLSSYFHFREAIDLKNKTLLEKSDLEPSLDFLDSLEYDIPRGSWSIQMERGNALVVLRSLLWPGLTFYHAPRTKNYGYIYVGTGEKNMDLPFML
B3: the binding entry with Rsph3b (mouse) [6], with Rsph4a (mouse) [3], with Rsph4a (mouse) [4], in the assay with Rsph6a (mouse), with Rsph4a (mouse) [5] and with Rsph3b (mouse) [2] was “binds” throughout.

B4: Rsph4a (protein, UniProt Q8BYM7 1-716)
chain: MENSTSLKQEKENQEPGEAERLWQGESDVSPQEPGPPSPEYREEEQRTDTEPAPRMSPSWSHQSRVSLSTGDLTAGPEVSSSPPPPPLQFHSTPLNTETTQDPVAASPTEKTANGIADTGTPYSDPWESSSAAKQSTSHYTSHAEESTFPQSQTPQPDLCGLRDASRNKSKHKGLRFDLLQEEGSDSNCDPDQPEVGASEAAQSMLEVAIQNAKAYLLSTSSKSGLNLYDHLSKVLTKILDERPADAVDIIENISQDVKMAHFNKKLDTLHNEYEMLPAYEIAETQKALFLQGHLEGADSELEEEMAESSLPNVMESAYYFEQAGVGLGTDETYRVFLALKQLTDTHPIQRCRFWGKILGLEMNYIVAEVEFRDGEDEEEVEEEGIAEERDNGGSEAGEEEEEELPKSLYKAPQVIPKEESRTGANKYVYFVCNVPGRPWVRLPSVTPAQIVTARKIKKFFTGRLDAAVISYPPFPGNESNYLRAQIARISAGTHVSPLGFYQFGEEEGEEEEVEGGRDSYEENPDFEGIQVIDLVESLSNWVHHVQYILPQGRCNWFNPIQKDEDEEEEEEEDEEKGEEPDYIEQEVGPPLLTPISEDLGIQNIPSWTTQLSSNLIPQYAIAVLRSNLWPGAYAFSNGKKFENFYIGWGHKYCVENYTPPSPPPVYQEYPSGPEITEMNDPSVEEEQAFRMTQEPVALSTEENEGTEDEDEDDED
Turning to B4, the binding entry with Rsph3b (mouse) [6], in the assay with Rsph3b (mouse) [1], with Rsph3b (mouse) [7] and in the assay with Rsph3b (mouse) [2] was “binds” throughout.

B5: Rsph10b (protein, UniProt E9PYQ0 1-876)
chain: MVKEKKKADKKGDKSARSPSSISDNPEASKQDSNASKQEVAPSAVVPVVETPLKQAPKRDSVQMEQSEEETQYEEPILTKLIVESYEGEKVRGLYEGEGFAVFQGGNTYHGMFSEGLMHGQGTYIWADGLKYEGDFVKNIPMNHGVYTWPDGSTYEGEVTNGMRNGFGMFKCGTQPVSYIGHWCHGKRHGKGSIYYNQEGTSWYEGDWVYNIKKGWGIRCYKSGNIYEGQWENNMRHGEGRMRWLTTNEEYTGHWEKGIQNGFGTHTWFLKRIPNSQYPLRNEYIGEFVNGFRHGQGKFYYASGAMYEGEWASNKKQGRGRMTFKNGHVYEGLFSNDHIAQFFETEMDYSQSLDRWSDASQRSRQPRGSSVSAVREPETLRKLDGSESRSVLGTSIELDLTLLLDMYPEESQEEEKKQVEYAVLRNITELRRIYCFYSGLGCDHSLDNTFLMTKLHFWRFLKDCRFHHHNITLADMDRVLSVYNGIPIEEIHSPFRTILLRTFLNYLLQLAYYIHHKEFQNRSPSLFLCFTKLMSENIHPHACQVKGHLFSEQQRTLYSMNYIDKCWEIYTAYCRPNEAPPYELTMKMRYFLWMLKDFRMINKDLTATKFMTVIAEDNPFVYDGTDSNFELELVFLEFFEALLCFSLCCMFDQMTRSYLKVPYDDITTNRYGSTQTILNQSIHRSPSAITSHDSEVHFSSTKSSLDKIGALPDGKIRQSEPKLKKSLSEDKVSKMNFKTQGRGLVFMSPQGEKYEKPKDEQKEKLNIWVNNLYVFFVSVLFSAYKREEMLKEKVKENQLQEAELAQQRQIENEELEARLNILREEEARKQDFELDITVLKEPSEIPASQPLTPSPPKEDLASIQTSKASPGKKKKK
On to B5, for which, in the assay with Rsph3b (mouse) [2], the binding result was “binds weakly”.
